{
  "sequences": {"note": "By UniProt entry, the sequences of proteins in these tests, tags left out. Where a name states a change or a piece, a line headed by the entry shows the natural chain unless it says otherwise. Residues count along the entry.", "UniProt Q9BXK5, 86-110": "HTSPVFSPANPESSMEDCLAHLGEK", "UniProt P46100": "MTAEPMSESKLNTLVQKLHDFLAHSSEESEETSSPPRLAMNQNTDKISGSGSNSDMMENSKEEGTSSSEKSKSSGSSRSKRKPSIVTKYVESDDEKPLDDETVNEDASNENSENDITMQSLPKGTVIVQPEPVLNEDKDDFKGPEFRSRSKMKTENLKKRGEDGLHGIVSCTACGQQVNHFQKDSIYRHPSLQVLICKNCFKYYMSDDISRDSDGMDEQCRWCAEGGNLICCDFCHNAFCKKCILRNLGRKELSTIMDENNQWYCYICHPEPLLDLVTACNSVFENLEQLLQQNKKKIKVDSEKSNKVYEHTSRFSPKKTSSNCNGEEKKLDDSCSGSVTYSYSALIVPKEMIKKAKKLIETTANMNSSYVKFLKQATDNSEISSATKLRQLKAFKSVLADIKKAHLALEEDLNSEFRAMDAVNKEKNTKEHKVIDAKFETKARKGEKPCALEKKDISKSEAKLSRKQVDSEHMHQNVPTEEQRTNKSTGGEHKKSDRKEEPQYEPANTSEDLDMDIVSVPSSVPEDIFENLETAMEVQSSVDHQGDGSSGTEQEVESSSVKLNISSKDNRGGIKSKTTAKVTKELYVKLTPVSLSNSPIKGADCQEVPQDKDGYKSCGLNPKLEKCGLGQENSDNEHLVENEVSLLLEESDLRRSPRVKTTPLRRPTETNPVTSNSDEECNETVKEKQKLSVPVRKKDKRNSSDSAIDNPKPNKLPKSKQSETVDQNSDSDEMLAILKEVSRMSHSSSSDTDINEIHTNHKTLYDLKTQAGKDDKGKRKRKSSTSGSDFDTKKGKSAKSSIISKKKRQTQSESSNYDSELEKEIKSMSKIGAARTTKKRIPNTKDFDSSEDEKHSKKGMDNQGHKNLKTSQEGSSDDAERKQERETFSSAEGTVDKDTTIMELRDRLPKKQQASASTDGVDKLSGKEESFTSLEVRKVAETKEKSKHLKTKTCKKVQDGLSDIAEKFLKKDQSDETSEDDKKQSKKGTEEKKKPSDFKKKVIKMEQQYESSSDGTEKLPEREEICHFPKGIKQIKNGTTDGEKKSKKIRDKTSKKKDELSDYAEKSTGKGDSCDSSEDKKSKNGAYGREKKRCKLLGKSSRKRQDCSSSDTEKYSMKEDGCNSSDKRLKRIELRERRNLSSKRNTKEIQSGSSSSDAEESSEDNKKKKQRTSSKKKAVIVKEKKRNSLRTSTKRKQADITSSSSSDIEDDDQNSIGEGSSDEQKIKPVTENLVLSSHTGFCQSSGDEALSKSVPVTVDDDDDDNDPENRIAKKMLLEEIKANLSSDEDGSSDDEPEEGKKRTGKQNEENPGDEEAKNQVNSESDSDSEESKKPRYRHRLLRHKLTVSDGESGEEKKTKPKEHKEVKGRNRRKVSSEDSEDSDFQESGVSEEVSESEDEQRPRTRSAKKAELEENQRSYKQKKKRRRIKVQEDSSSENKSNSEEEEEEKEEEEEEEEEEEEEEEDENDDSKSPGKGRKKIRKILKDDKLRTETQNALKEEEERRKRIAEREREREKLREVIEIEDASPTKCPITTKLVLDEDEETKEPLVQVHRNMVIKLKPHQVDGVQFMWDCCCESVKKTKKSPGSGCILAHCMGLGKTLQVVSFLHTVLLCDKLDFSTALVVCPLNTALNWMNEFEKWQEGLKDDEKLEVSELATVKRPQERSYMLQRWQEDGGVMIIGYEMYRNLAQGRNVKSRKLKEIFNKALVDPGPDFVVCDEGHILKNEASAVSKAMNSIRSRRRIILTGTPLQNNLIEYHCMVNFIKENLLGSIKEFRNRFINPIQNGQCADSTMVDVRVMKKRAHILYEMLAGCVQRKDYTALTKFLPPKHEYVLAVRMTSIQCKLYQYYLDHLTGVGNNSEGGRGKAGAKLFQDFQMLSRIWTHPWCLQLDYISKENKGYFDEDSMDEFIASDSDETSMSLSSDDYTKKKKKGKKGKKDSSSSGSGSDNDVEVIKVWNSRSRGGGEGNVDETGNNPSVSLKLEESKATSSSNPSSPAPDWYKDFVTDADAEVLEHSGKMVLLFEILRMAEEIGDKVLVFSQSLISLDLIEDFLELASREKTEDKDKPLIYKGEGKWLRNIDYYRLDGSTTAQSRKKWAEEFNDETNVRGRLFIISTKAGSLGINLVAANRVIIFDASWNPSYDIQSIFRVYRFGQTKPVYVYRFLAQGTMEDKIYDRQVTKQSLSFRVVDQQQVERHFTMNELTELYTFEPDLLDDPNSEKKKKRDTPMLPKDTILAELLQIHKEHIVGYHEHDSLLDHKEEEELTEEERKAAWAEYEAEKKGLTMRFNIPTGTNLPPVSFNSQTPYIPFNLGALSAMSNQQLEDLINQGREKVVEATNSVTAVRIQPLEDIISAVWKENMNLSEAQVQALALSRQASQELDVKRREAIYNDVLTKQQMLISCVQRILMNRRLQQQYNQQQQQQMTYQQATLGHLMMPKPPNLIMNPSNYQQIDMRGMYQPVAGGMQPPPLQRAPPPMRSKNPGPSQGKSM", "UniProt Q8TDH9, 2-21": "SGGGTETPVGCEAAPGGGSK", "UniProt Q96BY7, 864-894": "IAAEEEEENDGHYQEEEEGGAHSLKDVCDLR", "UniProt O95817, 366-388": "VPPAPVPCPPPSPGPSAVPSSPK", "UniProt Q9UIF9": "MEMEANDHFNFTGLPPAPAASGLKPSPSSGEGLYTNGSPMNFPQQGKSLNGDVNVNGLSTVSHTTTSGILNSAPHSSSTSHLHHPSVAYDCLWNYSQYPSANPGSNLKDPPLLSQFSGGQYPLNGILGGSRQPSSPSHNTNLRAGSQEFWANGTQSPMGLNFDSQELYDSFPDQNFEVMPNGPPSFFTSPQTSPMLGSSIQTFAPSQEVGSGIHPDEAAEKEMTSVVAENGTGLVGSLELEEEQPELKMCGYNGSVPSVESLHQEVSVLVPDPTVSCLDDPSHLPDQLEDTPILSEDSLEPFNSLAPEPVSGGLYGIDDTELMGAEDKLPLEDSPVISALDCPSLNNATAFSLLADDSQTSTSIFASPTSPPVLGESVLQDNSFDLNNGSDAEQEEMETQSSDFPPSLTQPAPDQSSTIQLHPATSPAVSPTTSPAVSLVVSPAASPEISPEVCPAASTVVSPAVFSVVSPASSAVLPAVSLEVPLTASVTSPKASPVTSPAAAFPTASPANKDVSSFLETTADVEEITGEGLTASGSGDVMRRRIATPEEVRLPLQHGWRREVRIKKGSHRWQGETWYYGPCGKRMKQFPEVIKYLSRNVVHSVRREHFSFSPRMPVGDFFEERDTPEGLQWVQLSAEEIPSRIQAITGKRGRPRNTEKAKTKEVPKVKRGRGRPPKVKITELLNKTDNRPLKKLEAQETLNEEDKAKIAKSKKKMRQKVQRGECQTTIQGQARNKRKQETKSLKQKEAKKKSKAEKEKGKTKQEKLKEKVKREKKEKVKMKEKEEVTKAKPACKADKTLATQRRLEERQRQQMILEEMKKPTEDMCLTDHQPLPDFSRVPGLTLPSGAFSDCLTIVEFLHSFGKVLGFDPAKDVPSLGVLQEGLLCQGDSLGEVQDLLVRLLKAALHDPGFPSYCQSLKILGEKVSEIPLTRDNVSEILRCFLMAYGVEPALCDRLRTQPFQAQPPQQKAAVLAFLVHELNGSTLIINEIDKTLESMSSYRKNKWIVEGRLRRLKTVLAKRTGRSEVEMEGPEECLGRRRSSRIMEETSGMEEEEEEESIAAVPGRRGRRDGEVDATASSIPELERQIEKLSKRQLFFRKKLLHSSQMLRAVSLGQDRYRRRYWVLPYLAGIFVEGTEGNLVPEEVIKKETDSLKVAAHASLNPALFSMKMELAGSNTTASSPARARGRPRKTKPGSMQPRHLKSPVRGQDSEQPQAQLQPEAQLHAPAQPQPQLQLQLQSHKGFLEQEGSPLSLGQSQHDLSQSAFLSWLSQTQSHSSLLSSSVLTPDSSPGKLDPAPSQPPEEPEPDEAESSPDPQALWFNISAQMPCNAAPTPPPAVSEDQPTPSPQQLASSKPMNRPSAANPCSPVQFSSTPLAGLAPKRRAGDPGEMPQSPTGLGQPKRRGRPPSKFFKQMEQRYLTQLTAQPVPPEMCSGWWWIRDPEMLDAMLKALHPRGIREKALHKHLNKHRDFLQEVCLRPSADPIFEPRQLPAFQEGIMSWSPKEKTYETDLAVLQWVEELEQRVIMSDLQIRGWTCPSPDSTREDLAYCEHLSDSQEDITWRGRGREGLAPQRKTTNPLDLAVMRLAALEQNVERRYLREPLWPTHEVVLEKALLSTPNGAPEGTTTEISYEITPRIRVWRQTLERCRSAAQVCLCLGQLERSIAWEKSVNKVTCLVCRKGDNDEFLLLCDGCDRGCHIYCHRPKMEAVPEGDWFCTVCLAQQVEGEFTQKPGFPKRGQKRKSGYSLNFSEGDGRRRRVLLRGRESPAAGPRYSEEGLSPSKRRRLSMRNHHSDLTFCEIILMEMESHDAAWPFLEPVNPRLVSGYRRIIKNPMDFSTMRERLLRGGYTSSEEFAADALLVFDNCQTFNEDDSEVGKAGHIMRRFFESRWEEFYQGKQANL", "UniProt Q9UIG0": "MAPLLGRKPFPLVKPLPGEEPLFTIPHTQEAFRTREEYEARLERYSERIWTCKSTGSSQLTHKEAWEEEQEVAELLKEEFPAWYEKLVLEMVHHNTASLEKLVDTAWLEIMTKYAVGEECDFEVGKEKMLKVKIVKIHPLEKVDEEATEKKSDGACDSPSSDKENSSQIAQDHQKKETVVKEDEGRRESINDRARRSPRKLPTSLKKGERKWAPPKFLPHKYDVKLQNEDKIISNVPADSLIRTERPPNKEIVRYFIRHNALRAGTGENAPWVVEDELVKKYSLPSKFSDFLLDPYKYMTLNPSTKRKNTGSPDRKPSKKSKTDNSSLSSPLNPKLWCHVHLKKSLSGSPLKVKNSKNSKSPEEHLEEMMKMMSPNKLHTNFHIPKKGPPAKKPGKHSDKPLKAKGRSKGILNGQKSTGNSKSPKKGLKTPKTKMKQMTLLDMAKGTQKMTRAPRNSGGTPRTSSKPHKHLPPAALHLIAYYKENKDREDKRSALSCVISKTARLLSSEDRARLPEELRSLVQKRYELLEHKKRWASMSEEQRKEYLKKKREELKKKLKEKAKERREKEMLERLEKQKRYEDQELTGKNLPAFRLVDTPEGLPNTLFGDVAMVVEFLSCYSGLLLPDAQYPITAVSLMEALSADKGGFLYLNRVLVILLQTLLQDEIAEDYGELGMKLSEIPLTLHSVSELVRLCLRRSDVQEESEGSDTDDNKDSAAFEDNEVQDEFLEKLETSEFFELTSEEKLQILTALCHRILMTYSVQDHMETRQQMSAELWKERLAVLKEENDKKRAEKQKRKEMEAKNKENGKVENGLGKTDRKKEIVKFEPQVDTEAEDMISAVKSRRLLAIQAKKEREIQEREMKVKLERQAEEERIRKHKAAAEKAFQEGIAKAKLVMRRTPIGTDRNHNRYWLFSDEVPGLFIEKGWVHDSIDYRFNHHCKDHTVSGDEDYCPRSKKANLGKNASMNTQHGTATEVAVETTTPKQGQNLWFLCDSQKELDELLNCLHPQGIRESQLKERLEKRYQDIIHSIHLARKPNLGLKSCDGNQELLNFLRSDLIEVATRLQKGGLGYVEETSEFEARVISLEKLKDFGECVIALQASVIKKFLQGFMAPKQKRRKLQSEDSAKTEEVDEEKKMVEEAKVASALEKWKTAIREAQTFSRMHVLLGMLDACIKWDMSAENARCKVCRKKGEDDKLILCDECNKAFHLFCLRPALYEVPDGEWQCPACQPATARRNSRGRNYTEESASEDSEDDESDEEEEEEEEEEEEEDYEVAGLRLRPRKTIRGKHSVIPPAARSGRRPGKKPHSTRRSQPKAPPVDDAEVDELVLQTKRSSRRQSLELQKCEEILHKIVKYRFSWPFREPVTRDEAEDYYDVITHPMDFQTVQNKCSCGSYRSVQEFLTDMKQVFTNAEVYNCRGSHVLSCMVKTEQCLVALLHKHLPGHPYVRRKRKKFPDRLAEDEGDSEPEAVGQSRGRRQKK", "UniProt Q96L58": "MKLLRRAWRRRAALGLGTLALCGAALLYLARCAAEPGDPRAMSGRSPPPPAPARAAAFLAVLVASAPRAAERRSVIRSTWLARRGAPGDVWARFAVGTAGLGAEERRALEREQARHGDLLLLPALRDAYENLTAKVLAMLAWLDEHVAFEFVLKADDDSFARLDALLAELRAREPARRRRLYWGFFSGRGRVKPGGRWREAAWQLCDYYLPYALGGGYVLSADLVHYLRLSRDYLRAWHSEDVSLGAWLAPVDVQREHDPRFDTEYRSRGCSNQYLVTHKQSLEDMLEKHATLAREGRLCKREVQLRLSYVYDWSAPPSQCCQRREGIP"},
  "source": "the supplement of paper PMC11732987",
  "about": "“Enantioselective OTUD7B fragment discovery through chemoproteomics screening and high-throughput optimisation” (Communications Chemistry, 2025)",
  "note": "This is one part of the list. The data scatter; read single values as rough.",
  "data": [
    {"compound": "ClCC(=O)N[C@H]1CCCc2ccccc12", "experiment": "log2 mean competition ratio of IA-DTB cysteine labelling (DMSO/compound) (log2 ratio); higher = stronger cysteine engagement by compound", "settings": "50 µM; treatment time: 4 h; cell line lysate: HEK293T", "procedure": "(§1)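 IA-DTB competitive cysteine chemoproteomics in HEK293T RIPA lysate. Lysates were treated with compound 29 or 30 at 50 or 200 µM for 4 h, then IA-DTB (500 µM, 1 h), trypsin-digested, NeutrAvidin-enriched and analysed by diaPASEF. Competition ratio = intensity DMSO / intensity compound (n=4 treated, n=64 DMSO); binding: mean log2 CR ≥ 1 and p ≤ 0.05 plus QC filters. Target is the cysteine site.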", "values": [
      {"target": "BCL2L13 C103 (UniProt Q9BXK5)", "log2 mean competition ratio": -0.192},
      {"target": "ATRX C1844 (UniProt P46100)", "log2 mean competition ratio": -0.0963},
      {"target": "BLOC1S5 C12 (UniProt Q8TDH9)", "log2 mean competition ratio": 0.252},
      {"target": "ATG2B C891 (UniProt Q96BY7)", "log2 mean competition ratio": 0.143},
      {"target": "BAG3 C373 (UniProt O95817)", "log2 mean competition ratio": 0.241},
      {"target": "ATXN10 C283 (UniProt Q9UBB4)", "log2 mean competition ratio": -0.262},
      {"target": "BAZ2A C1037 (UniProt Q9UIF9)", "log2 mean competition ratio": 0.188},
      {"target": "BCR C1074 (UniProt P11274)", "log2 mean competition ratio": 0.145},
      {"target": "BAZ1B C120 (UniProt Q9UIG0)", "log2 mean competition ratio": -0.693},
      {"target": "BAZ1B C953 (UniProt Q9UIG0)", "log2 mean competition ratio": 0.0207},
      {"target": "B3GALT6 C32 (UniProt Q96L58)", "log2 mean competition ratio": -0.455},
      {"target": "BIRC6 C1236", "log2 mean competition ratio": -0.481},
      {"target": "BAZ1A C105 (UniProt Q9NRL2)", "log2 mean competition ratio": -0.0217},
      {"target": "ATIC C101 (UniProt P31939)", "log2 mean competition ratio": -0.462},
      {"target": "AURKA C49 (UniProt O14965)", "log2 mean competition ratio": 0.296},
      {"target": "BAZ1B C1428 (UniProt Q9UIG0)", "log2 mean competition ratio": 0.106},
      {"target": "BCORL1 C1460 (UniProt Q5H9F3)", "log2 mean competition ratio": -0.0549},
      {"target": "ATG7 C322 (UniProt O95352)", "log2 mean competition ratio": -0.221},
      {"target": "BDH1 C221 (UniProt Q02338)", "log2 mean competition ratio": -0.306},
      {"target": "ATRX C1718 (UniProt P46100)", "log2 mean competition ratio": -0.433}
    ]},
    {"compound": "ClCC(=O)N[C@H]1CCCc2ccccc12", "experiment": "log2 mean competition ratio of IA-DTB cysteine labelling (DMSO/compound) (log2 ratio); higher = stronger cysteine engagement by compound", "settings": "200 µM; treatment time: 4 h; cell line lysate: HEK293T", "procedure": "as §1", "values": [
      {"target": "BCL2L13 C103 (UniProt Q9BXK5)", "log2 mean competition ratio": -0.21},
      {"target": "ATRX C1844 (UniProt P46100)", "log2 mean competition ratio": 0.0351},
      {"target": "BLOC1S5 C12 (UniProt Q8TDH9)", "log2 mean competition ratio": -0.124},
      {"target": "ATG2B C891 (UniProt Q96BY7)", "log2 mean competition ratio": -0.268},
      {"target": "BAG3 C373 (UniProt O95817)", "log2 mean competition ratio": -0.126},
      {"target": "ATXN10 C283 (UniProt Q9UBB4)", "log2 mean competition ratio": 0.0314},
      {"target": "BAZ2A C1037 (UniProt Q9UIF9)", "log2 mean competition ratio": 0.015},
      {"target": "BCR C1074 (UniProt P11274)", "log2 mean competition ratio": 0.279},
      {"target": "BAZ1B C120 (UniProt Q9UIG0)", "log2 mean competition ratio": -0.182},
      {"target": "BAZ1B C953 (UniProt Q9UIG0)", "log2 mean competition ratio": 0.123},
      {"target": "B3GALT6 C32 (UniProt Q96L58)", "log2 mean competition ratio": 0.0525},
      {"target": "BIRC6 C1236", "log2 mean competition ratio": 0.117},
      {"target": "BAZ1A C105 (UniProt Q9NRL2)", "log2 mean competition ratio": -0.412},
      {"target": "ATIC C101 (UniProt P31939)", "log2 mean competition ratio": 0.0124},
      {"target": "AURKA C49 (UniProt O14965)", "log2 mean competition ratio": 0.234},
      {"target": "BAZ1B C1428 (UniProt Q9UIG0)", "log2 mean competition ratio": -0.162},
      {"target": "BCORL1 C1460 (UniProt Q5H9F3)", "log2 mean competition ratio": -0.17},
      {"target": "ASXL2 C299 (UniProt Q76L83)", "log2 mean competition ratio": -0.229},
      {"target": "ATG7 C322 (UniProt O95352)", "log2 mean competition ratio": 0.0979},
      {"target": "BDH1 C221 (UniProt Q02338)", "log2 mean competition ratio": 0.187},
      {"target": "ATRX C1718 (UniProt P46100)", "log2 mean competition ratio": -0.104}
    ]}
  ]
}
